# Primary screen of a compound library

The chains behind the UniProt entries cited, without tags or fusion partners.
UniProt E9BF75, entry or part of it: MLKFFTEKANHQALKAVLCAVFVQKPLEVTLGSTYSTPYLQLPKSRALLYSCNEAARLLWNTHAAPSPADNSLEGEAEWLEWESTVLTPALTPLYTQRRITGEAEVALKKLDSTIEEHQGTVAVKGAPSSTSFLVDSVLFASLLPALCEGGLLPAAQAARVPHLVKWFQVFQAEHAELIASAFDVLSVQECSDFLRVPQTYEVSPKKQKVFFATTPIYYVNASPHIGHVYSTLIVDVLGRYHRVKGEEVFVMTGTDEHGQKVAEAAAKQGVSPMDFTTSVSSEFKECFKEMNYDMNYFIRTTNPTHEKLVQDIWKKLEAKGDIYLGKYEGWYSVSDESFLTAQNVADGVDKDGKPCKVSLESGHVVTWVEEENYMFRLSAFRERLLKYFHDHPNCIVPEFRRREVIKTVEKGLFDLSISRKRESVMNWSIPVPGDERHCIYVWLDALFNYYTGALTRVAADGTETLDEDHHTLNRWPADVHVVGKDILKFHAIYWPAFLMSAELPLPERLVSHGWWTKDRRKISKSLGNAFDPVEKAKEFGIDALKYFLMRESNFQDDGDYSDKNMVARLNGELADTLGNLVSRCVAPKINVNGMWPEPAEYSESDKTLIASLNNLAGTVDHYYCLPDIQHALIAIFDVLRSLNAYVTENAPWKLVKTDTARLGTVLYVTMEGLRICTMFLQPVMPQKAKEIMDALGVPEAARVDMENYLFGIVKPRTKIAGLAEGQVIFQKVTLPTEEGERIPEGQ

LdMetRS: 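Methionyl-tRNA synthetase (putative), Leishmania donovani (UniProt E9BF75). Primary screen of methionyl-tRNA synthetase; the read-out is not stated. The test concentration is not given. Values are per cent inhibition. About 68,000 compounds were tested under these conditions; 0.035% (about 24) showed 50% or more at least once.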
Mtb heat-shock: 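Assay on Mycobacterium tuberculosis, filed only as a heat shock assay from Cornell; the read-out is not stated. The concentration is filed as 10 mM, unlikely as a test dose, so the dose is not known. Higher reads as stronger inhibition (inferred: compounds with an IC50 in retests scored well above the rest). About 69,000 compounds were tested under these conditions; 1.4% (about 930) showed 50% or more at least once.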

All values are in %.
The record does not define 0% and 100%; most values in the screen are far below 50% and negative numbers occur (in some assays of this library far below -100).
The compounds are a random part of those screened.
A dash means the value is not listed here; it may have been measured.

compound	LdMetRS	Mtb heat-shock
Cc1ccc(-c2nc(CNCCn3cccn3)cs2)o1	10.2%	26.99%
COc1ccc(CN2C[C@@H]3CC[C@H](C2)N(S(=O)(=O)C2CC2)C3)cc1	13.55%	-
NC(=O)CN1CCC(C(=O)NCc2nc(-c3ccc(F)cc3)cs2)CC1	2.41%	-6.495%
O=C(CCCc1ccccn1)N1CCCC(n2cccn2)C1 (centres undefined)	21.86%	-26.34%
CCC(C(=O)NC1(COC)CCCC1)n1cccn1 (centres undefined)	6.272%	-13.61%
Cc1cc(CC(C)Nc2ncnc3cccc(F)c23)[nH]n1 (centres undefined)	14.24%	-9.766%
[H][C@@]12CN(C(=O)c3conc3C)C[C@]1([H])C(=O)N(Cc1cccc(C)c1)C2	-	-18.12%
Cc1n[nH]c(C2CN(C(=O)c3ccn(C)c(=O)c3)CCO2)n1 (centres undefined)	6.738%	36.06%
COc1nc(C)c(C(=O)NCc2cc(N3CCOCC3)ncn2)s1	14.29%	-26.13%
[H][C@@]12CCN(C(=O)Cc3ccc(F)cc3OC)C[C@]1([H])OCCNC2=O	-	-7.575%
Cc1occc1C(=O)N1C[C@@H]2OCCN(c3ncccn3)[C@@H]2C1	9.589%	-
c1csc(N2CCCN(c3nccn4cnnc34)CC2)n1	6.723%	-3.433%
Cc1cccc(C(=O)N2Cc3ccccc3C3(CCN(C)CC3)C2)n1	2%	-16.56%
O=C(c1cccc(NCCO)c1)N1CCOCC1	3.937%	-3%
COc1cccc(CC2CN(C(=O)c3ccnn3C)CCO2)c1 (centres undefined)	9.589%	-2.809%
CC1CN(C(=O)c2cnn(-c3ccccn3)c2C(C)C)CC(C)(C)O1 (centres undefined)	7.326%	-4.81%
COCCN1CCc2ncnc(NC3CC3)c2CC1	17.14%	6.467%
CC(C)(C)c1nnc(CNc2cc(F)ccc2OCC2CCCO2)o1 (centres undefined)	0.5435%	-10.28%
Cc1cnccc1-c1cnn(CCNC(=O)C(C)(C)C)c1C1CC1.Cl	-	-19.45%
COc1ccccc1CN1CC[C@]2(C[C@H](OC)CO2)C1	11.2%	-
Cc1cc(NC(=O)CN(CC2CCOC2)C2CC2)no1 (centres undefined)	8.96%	-20.77%
CC(C)(C)NC(=O)CNC(=O)Nc1cc(-c2ccccc2)ns1	21.53%	-8.482%
Cc1c(I)cccc1C(=O)NCC1(CO)CC1	13.41%	-10.54%
COc1ccc2c(c1)nc1n2[C@@H](CNC(=O)c2ccccn2)COC1	12.09%	-33.78%
CCN1CCCC2(CCN(Cc3nnc(C4CC4)o3)C2)C1=O (centres undefined)	5%	-6.848%
CO[C@@H]1CC[C@H]2[C@H]1OCCN2C(=O)c1nn(C)c2ccccc12	-8.743%	-
CC(C)CN1CCC(NC(=O)NCCC(=O)NCc2ccccc2)CC1	2.375%	-2.183%
[H][C@]12CC[C@]([H])(CN(C(=O)c3ccccn3)C1)N(C(=O)CCc1cccs1)C2	-	2.47%
CC(=O)N1[C@H](CN(C)C)C[C@@H]2CN(C(=O)c3cccn3C)CC[C@@H]21	10.64%	-
[H][C@@]12CN(CCCc3ccccc3)C[C@]1([H])OCC(=O)N2CCOC	-	-39.56%
Nc1nc(NCCc2[nH]nc3c2CCCC3)cc(N2CCOCC2)n1	14.66%	18.64%
COCCNC(=O)C1CCCN(c2ccc3nncn3n2)C1 (centres undefined)	11.31%	8.841%
O=C(O)C(F)(F)F.[H][C@@]12COC[C@@H](CC(=O)N3CCCCO3)[C@]1([H])CN(CC1CC1)C2	-	-3.77%
Cc1cc(C)n(CC2CCCN2Cc2cccc(C#N)c2)n1 (centres undefined)	5.412%	-16.04%
CN(C)C(=O)COC[C@H]1CC[C@@H]2[C@@H](CCN2Cc2ccccn2)O1	6.667%	-
C=C(C)CN(CC)Cc1nc(C(C)(C)C)no1	-1.045%	-9.566%
CCN(C(=O)c1ccc2nncn2c1)C(C)Cc1ccc(OC)cc1 (centres undefined)	8.906%	15.07%
O=C(NCCCN1CCOCC1)c1ccn(COc2ccc(F)cc2)n1	-17.34%	-6.341%
Cc1nc(C)n(CC2CCCN2c2ncnc3sccc23)n1 (centres undefined)	20.95%	16%
CC(C)Oc1ccc(-c2csc(Cn3ccc(=O)[nH]c3=O)n2)cc1	16.23%	-13.39%
Cl.NC(Cc1nc(-c2ccccc2)no1)c1ccccc1 (centres undefined)	-	27.04%
CC(NCCCN1CCCC1=O)c1cc(Br)ccc1F (centres undefined)	15.79%	13.95%
[H][C@@]12CN(Cc3ccccn3)C(=O)N1CCN(S(=O)(=O)c1ccccc1)C2	-	-15.08%
CS(=O)(=O)c1ccc(C(=O)NCCNc2ncccn2)cc1	14.86%	-12.02%
CCc1nccn1C1CCCN(C(=O)c2ccc(N(C)C)nn2)C1 (centres undefined)	5.744%	-11.21%
CC(C(=O)Nc1nccs1)N1CCc2nn(C)c(=O)cc2C1 (centres undefined)	23.76%	-0.6742%
O=C(N1CCCC1)N1CCCC2(CCN(c3ccsc3)C2=O)C1 (centres undefined)	18.13%	8.132%
CN1C(=O)CCc2cc(NC(=O)C3CC(=O)N(CC4CC4)C3)ccc21 (centres undefined)	12.01%	-3.494%
CN(Cc1ccc(Cl)s1)C(=O)c1ccccc1OCC(N)=O	4.061%	10.54%
CC1(C)CN=C(N2CCN(CCCN3CCOCC3)CC2)S1	17.13%	-1.225%
[H][C@]12CC[C@]([H])(CN(C(=O)CCn3cc(Cl)cn3)C1)N(CCOC)C2	-	17.43%
Cc1nc(C2CCN(S(C)(=O)=O)CC2)nc2c1CCC(=O)N2CC(C)C	10.25%	1.607%
CC(c1cccc(F)c1)N1CCN(Cc2nccn2C)CC1 (centres undefined)	21.55%	-12.42%
Cc1ncsc1CCN1CCC(N(C)Cc2ncc(C(C)C)o2)C1 (centres undefined)	10.82%	-11.18%
Cc1nc(CN2CCCC2Cn2ccnc2C(C)C)nc2ccccc12 (centres undefined)	21.6%	-17.61%
Cc1nn(C)c(C)c1C1CCCN1Cc1nc(-c2ccco2)no1 (centres undefined)	14.92%	5.439%
CN(C)S(=O)(=O)N1CC[C@]2(C[C@H](OCc3ccncc3)CO2)C1	14.29%	-
CCN(C)Cc1n[nH]c(=O)n1-c1cc(F)ccc1C	20.63%	15.2%
O=C(C1CCOCC1)N1C[C@H]2C[C@H](OCc3ccccc3)C[C@H]2C1	11.11%	-
[H][C@@]12CCN(S(C)(=O)=O)[C@]1([H])CC[C@@H](c1nc(C)no1)O2	-	-21.71%
CSCC(CCO)Nc1nc(C(F)F)nc2ccccc12 (centres undefined)	14.42%	4.492%
CC[C@H]1CN(S(=O)(=O)c2ccccc2)CC[C@H]1CC(=O)O	-8.242%	-20.35%
O=C(O)c1cn2cc(C(F)(F)F)ccc2n1	8.625%	-6.27%
COc1cccc(CNCc2nnc3n2CC(C(F)(F)F)CC3)c1 (centres undefined)	4.089%	-5.967%
CCC1CN(C)c2ccccc2CN1C(=O)Nc1ccc(C)cc1 (centres undefined)	9.645%	0.9304%
O=C(C1CCCCC1)N1C[C@@H]2CCNC[C@@H]21	8.889%	-
NC(=O)C1CCN(CCc2ccc(NCc3ccoc3)cc2)CC1	4.485%	-4.172%
Cc1ccsc1C(=O)N1C[C@@H](C(=O)O)[C@H](C(C)C)C1	8.411%	-4.099%
Cc1ccc(C(=O)N2Cc3c(CN(C)C)nn(C)c3C2)cc1C	-8.125%	-
Cc1ccc(CN2CCc3ncnc(-c4cccnc4)c3CC2)o1.O=C(O)C(F)(F)F.O=C(O)C(F)(F)F	-	-8.174%
CC(C)n1c(C2CCCN(CC(=O)NC(N)=O)C2)nc2ccccc21 (centres undefined)	-	-26.42%
Cc1cccc(-c2ccc(C(=O)NCCN(C)C3CC3)c(=O)[nH]2)c1	11.76%	18.03%
COc1ccc2cc(CN(C)C(C)c3nc(C4CC4)no3)ccc2c1 (centres undefined)	13.71%	-3.501%
O=C(C1CNCCN1C(=O)CCOc1ccccc1)N1CCCC1 (centres undefined)	10.36%	9.427%
Cc1n[nH]c(C)c1NC(=O)CN1CCCC1c1noc(C2CC2)n1 (centres undefined)	13.39%	-4.438%
O=C(O)C(F)(F)F.O=C(O)C(F)(F)F.[H][C@@]12COC[C@]1(COCc1cccc(C)n1)CN(c1cc(OC)ncn1)C2	-	1.772%
CC(C)N1CCC(CC(=O)NCC2OCCc3ccccc32)CC1 (centres undefined)	10.56%	-3.841%
Cc1cc(C)n(CCN(C)Cc2c[nH]nc2-c2ccc3c(c2)OCO3)n1	3.553%	7.596%

For reference, 9 entries once more:

- Nc1nc(NCCc2[nH]nc3c2CCCC3)cc(N2CCOCC2)n1 | LdMetRS: 14.66%; Mtb heat-shock: 18.64%
- NC(=O)C1CCN(CCc2ccc(NCc3ccoc3)cc2)CC1 | LdMetRS: 4.485%; Mtb heat-shock: -4.172%
- Cc1ccsc1C(=O)N1C[C@@H](C(=O)O)[C@H](C(C)C)C1 | LdMetRS: 8.411%; Mtb heat-shock: -4.099%
- COc1nc(C)c(C(=O)NCc2cc(N3CCOCC3)ncn2)s1 | LdMetRS: 14.29%; Mtb heat-shock: -26.13%
- Cc1cc(C)n(CCN(C)Cc2c[nH]nc2-c2ccc3c(c2)OCO3)n1 | LdMetRS: 3.553%; Mtb heat-shock: 7.596%
- O=C(c1cccc(NCCO)c1)N1CCOCC1 | LdMetRS: 3.937%; Mtb heat-shock: -3%
- Cc1nc(CN2CCCC2Cn2ccnc2C(C)C)nc2ccccc12 (centres undefined) | LdMetRS: 21.6%; Mtb heat-shock: -17.61%
- COc1cccc(CC2CN(C(=O)c3ccnn3C)CCO2)c1 (centres undefined) | LdMetRS: 9.589%; Mtb heat-shock: -2.809%
- Cc1cccc(C(=O)N2Cc3ccccc3C3(CCN(C)CC3)C2)n1 | LdMetRS: 2%; Mtb heat-shock: -16.56%

Measurements from “University of Dundee, Small-Polar-MMV Screening Library” (2021), ChEMBL document CHEMBL3988442.